Experimental data published in patent publication US7851630B2, “Hydronopol substituted benzimidazolone and quinazolinone derivatives as agonists on human ORL1 receptors” (dated 2010).
The match of structure and compound is tentative. Some compounds may have been tested in ways that are not shown here.

The chains behind the UniProt entries cited, without tags or fusion partners.
UniProt P41146, whole entry: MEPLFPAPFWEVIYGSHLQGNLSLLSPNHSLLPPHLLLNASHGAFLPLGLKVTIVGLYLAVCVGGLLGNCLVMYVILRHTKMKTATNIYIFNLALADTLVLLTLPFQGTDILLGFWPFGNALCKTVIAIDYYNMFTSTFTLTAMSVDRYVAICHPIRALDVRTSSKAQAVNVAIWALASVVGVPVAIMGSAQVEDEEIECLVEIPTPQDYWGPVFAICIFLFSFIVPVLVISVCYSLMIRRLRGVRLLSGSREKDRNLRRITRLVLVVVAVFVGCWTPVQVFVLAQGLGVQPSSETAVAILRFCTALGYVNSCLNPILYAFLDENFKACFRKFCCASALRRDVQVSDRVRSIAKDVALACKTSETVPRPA
UniProt P35372, whole entry: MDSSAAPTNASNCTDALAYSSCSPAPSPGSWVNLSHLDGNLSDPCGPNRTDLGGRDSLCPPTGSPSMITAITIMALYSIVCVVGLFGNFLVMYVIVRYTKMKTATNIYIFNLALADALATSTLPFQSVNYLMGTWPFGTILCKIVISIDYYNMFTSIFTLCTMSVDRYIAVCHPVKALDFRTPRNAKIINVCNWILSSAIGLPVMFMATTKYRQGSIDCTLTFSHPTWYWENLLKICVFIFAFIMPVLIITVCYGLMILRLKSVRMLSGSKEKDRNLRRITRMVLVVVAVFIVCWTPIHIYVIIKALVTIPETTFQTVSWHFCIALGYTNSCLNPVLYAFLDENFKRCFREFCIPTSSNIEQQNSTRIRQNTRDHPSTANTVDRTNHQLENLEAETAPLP

What was measured:
[1] = system: conditioned ultrasonic distress vocalisation; conditions: tested form: HCl
ORL1 receptor [2] = biological target: T1, ORL1 receptor (Homo sapiens, UniProt P41146); test: Affinity for human ORL1 receptors, [3H]-nociceptin receptor binding assay; conditions: membranes of CHO cells expressing human ORL1 receptor, tested form: HCl
ORL1 receptor [3] = biological target: T1, ORL1 receptor; test: In vitro ORL1 receptor agonism, cAMP assay; conditions: tested form: HCl
human μ-opiate receptor = human μ-opiate receptor (Homo sapiens, UniProt P35372); test: Affinity for μ-opiate receptors, [3H]-naloxone receptor binding assay; conditions: membranes of CHO cells expressing human μ-opiate receptor, tested form: HCl

## CC1(C)[C@H]2CC[C@@H](CCN3CCC(n4c(=O)[nH]c5ccccc54)CC3)[C@@H]1C2
[1]; intraperitoneal administration
  In vivo agonism C.U.D.V. i.p. ED50: 1.4 mg/kg
[1]; oral administration
  In vivo agonism C.U.D.V. p.o. ED50: 6.0 mg/kg
ORL1 receptor [2]
  affinity ORL1 pKi: 8.4
ORL1 receptor [3]
  In vitro agonism cAMP assay pEC50: 8.6
Human μ-opiate receptor
  affinity μ-opiate pKi: 7.2
